# According to PubChem BioAssay AID1347076 (National Center for Advancing Translational Sciences (NCATS), 2019):
# About 13,000 (3.2%) of roughly 400,000 compounds were called active. The shares of active, inactive and inconclusive entries below differ from those in the screen. Calls come from the whole dose curve; as a rule, active = well fitted cell-killing curve with a large enough effect; inconclusive = small, poorly fitted or top-dose-only effect, or effect the other way; inactive = flat fitted curve, though single readings scatter. Potencies beside an inconclusive call are fits to weak or partial responses and may not hold up.
# Assay: qHTS assay for MDR1-selective chemotherapeutics: Primary screen using the drug-selected MDR subline cells KB-V1; note: nearly all actives have a fitted effect of over 60% in size
# Settings: KB-V1 MDR cells viability, CellTiter-Glo, 72 h; activity change, negative = cytotoxicity: at 46.1 µM (top of the series)
# Method in brief: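 KB-V1 MDR subline cells in DMEM (phenol-red free, 10% FBS) exposed to compounds in qHTS concentration series for 72 h at 37 degrees C. Viability read by CellTiter-Glo luminescence; concentration-effect curves fitted after normalization and correction.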
# % is set by controls: 0 for no effect and ±100 for the full control effect; potency is the fitted concentration of half-maximal effect.
Structure (SMILES),Potency,"activity change, negative = cytotoxicity"
CCCCOc1ccc(C(=O)Nc2ccc(N3CCN(C(C)=O)CC3)cc2)cc1,active: 2.59 µM,–
CC(=O)C[C@H]1c2cc(F)ccc2S(=O)(=O)N1c1ccc(N(C)C)cc1,"inconclusive: 18.4 µM [cytotoxic, single point]",–
COc1ccc(C(=O)NCCCCNC(=O)c2ccc(OC)c(OC)c2)cc1OC,"inconclusive: 32.6 µM [rising, single point]",–
COCCNc1c2c(c(C#N)c3nc4ccccc4n13)CCCC2,"inconclusive: 7.31 µM [cytotoxic, partial curve]",–
O=[N+]([O-])c1ccc(N2CCC(=NOCc3ccc(Cl)cc3)CC2)cc1,active: 14.6 µM,–
CCOc1ccc(NC(=O)COC(=O)c2c(OC)cccc2OC)cc1,–,inactive: 15.6%
COc1ccc(CCNC(=O)CSc2nc3scc(-c4ccccc4)c3c(=O)[nH]2)cc1,–,inactive: -14.2%
O=C1COc2ccc(-c3csc(=Nc4ccc(OC(F)F)cc4)n3CC3CCCO3)cc2N1 (configuration not stated),active: 2.91 µM,–
COc1cccc(N2CCN(C(=O)c3ccc(=O)oc3)CC2C)c1 (configuration not stated),"inconclusive: 7.31 µM [rising, partial curve]",–
O=S(=O)(c1ccc(Cl)cc1)c1nnn2c1nc(NC1CCCCC1)c1sccc12,–,inactive: -7.42%
COc1ccccc1-c1nnc(SCC(=O)NCc2c(C)c(Cl)cc(C(C)C)c2O)o1,"inconclusive: 18.4 µM [cytotoxic, single point]",–
CC(C)(C)NC(=O)C(=O)NC(=O)c1c(F)cccc1Cl,"inconclusive: 16.4 µM [rising, single point]",–
CN1CCCC1CCNc1ccc2sc3ccccc3c(=O)c2c1 (configuration not stated),"inconclusive: 16.4 µM [cytotoxic, single point]",–
Cc1nn(-c2ccccc2)c(Cl)c1CN(C(=O)CCl)c1cccc2ccccc12,"inconclusive: 29.1 µM [cytotoxic, single point]",–
O=C1c2ccccc2C(=O)N1Cc1ccc2c(c1)OCO2,"inconclusive: 12.6 µM [rising, partial curve]",–
CN(C)c1cccc(C(=O)Nc2nc3ccc(S(=O)(=O)N4CCCC4)cc3s2)c1,active: 20.6 µM,–
COc1ccc(N2CCc3c(C)nc4c(OC)cccc4c32)cc1,"inconclusive: 7.31 µM [cytotoxic, partial curve, poor fit]",–
CCOC(=O)C1CCN(C(=O)C(C)Sc2nnc3ccccn23)CC1 (configuration not stated),"inconclusive: 20.6 µM [rising, single point]",–
O=C(Nc1ccc2c(c1)OCCO2)C1CCCN(S(=O)(=O)Cc2ccccc2)C1 (configuration not stated),–,inactive: -6.83%
O=C1CCCC2=C1C(c1ccsc1)CC(=O)N2c1ccccc1 (configuration not stated),active: 13 µM,–
CC1CN(Cc2ccc(C#N)cc2Cl)CC(C)O1 (configuration not stated),–,inactive: -5.03%
O=C(CCn1c(=O)c2sccc2n(CC(=O)Nc2ccccc2)c1=O)NCc1ccccc1Cl,–,inactive: 21.9%
Cc1cccc2nc(CSc3nc4[nH]ncc4c(=O)n3-c3ccccc3Cl)cc(=O)n12,"inconclusive: 18.4 µM [cytotoxic, single point]",–
O=S(=O)(c1ccc2c(c1)OCCO2)N1CCC(c2nc3ccc(Cl)cc3[nH]2)CC1,active: 2.91 µM,–

Structure (SMILES),Potency,"activity change, negative = cytotoxicity"
COc1cccc(CNCc2cccn2-c2nnc(N3CCN(c4ccccc4)CC3)s2)c1,"inconclusive: 20.6 µM [cytotoxic, single point]",–
O=C(Oc1cccc2cccnc12)c1cccs1,active: 11.6 µM,–
CCC(=O)N(c1nnc(SCC(=O)Nc2sccc2C(N)=O)s1)C1CC1,–,inactive: -21%
CC(=O)C1CN(S(=O)(=O)c2ccc(C)cc2)C(c2ccccc2)CC1C (configuration not stated),"inconclusive: 14.6 µM [cytotoxic, partial curve]",–
O=C(Nc1ccccc1)c1sc(N2CCOCC2)nc1-c1ccccc1,"inconclusive: 0.0073 µM [rising, full curve, poor fit]",–
CCn1c(=O)cc(SCC(=O)NCc2ccc(Cl)cc2)c2ccccc21,–,inactive: -37.6%
CCN(CC)CCCC(C)Nc1nccc2c(Cl)cccc12 (configuration not stated),"inconclusive: 6.51 µM [cytotoxic, full curve, poor fit]",–
CN(C)CCN1CCN(C(c2ccnc3ccccc23)c2nnnn2-c2ccc3c(c2)OCCO3)CC1 (configuration not stated),–,inactive: -0.391%
COc1ccccc1CCC(=O)Nc1nc2ccccc2[nH]1,"inconclusive: 29.1 µM [cytotoxic, single point]",–
CCC1S/C(=N\S(=O)(=O)c2cccs2)N(C2CCCCC2)C1=O (configuration not stated),"inconclusive: 20.6 µM [cytotoxic, partial curve, poor fit]",–
O=C(O)CC(NC(=O)CCC1CCCCC1)c1cc([N+](=O)[O-])ccc1Cl (configuration not stated),"inconclusive: 0.0046 µM [cytotoxic, full curve, poor fit]",–
O=C(c1ccc(S(=O)(=O)N2CCCCC2)cc1)N1CCN(Cc2ccc3c(c2)OCO3)CC1,active: 2.59 µM,–
COc1ccc(S(=O)(=O)Nc2ccc(F)c(F)c2)cc1Cl,–,inactive: -2%
COc1ccc(C(=O)Nc2c(Cl)cc(Cl)cc2C(=O)NCc2ccco2)cc1,active: 7.31 µM,–
O=C(O)C(Cc1ccc(F)cc1)c1ccccc1 (configuration not stated),–,inactive: 8.4%
COc1ccccc1N1CCN(C(=O)C(Cc2ccccc2)NC(=O)C2CCCCC2)CC1 (configuration not stated),"inconclusive: 1.46 µM [cytotoxic, full curve]",–
CC(C)C[C@H]1CN(CCCC[C@H]2CNC(=O)C(=O)N2Cc2ccccc2)C(=O)C(=O)N1Cc1ccccc1,"inconclusive: 18.4 µM [rising, partial curve, poor fit]",–
CCCNC(=O)c1cc(S(=O)(=O)N2CCc3ccccc32)cn1C,"inconclusive: 11.6 µM [cytotoxic, partial curve]",–
CC(=O)c1c(C)nc2sc3c(=N)n(N)cnc3c2c1-c1ccc(Cl)cc1,active: 18.4 µM,–
Cc1cc(N2CCN(c3ccc(F)cc3)CC2)n2nc(-c3ccc(Cl)cc3)nc2n1,"inconclusive: 16.4 µM [rising, partial curve]",–
CCc1nn(CC(=O)NCCc2ccc(Cl)cc2)c(=O)c2cc3ccccc3n12,–,inactive: -3.01%
O=C(Nc1ccc2nc3n(c(=O)c2c1)CCCCC3)c1cc([N+](=O)[O-])ccc1F,–,inactive: -18.2%
CCOc1cc(S(=O)(=O)NCC2OCCc3ccccc32)c(OCC)cc1-n1cnnn1 (configuration not stated),"inconclusive: 13 µM [cytotoxic, partial curve]",–

# As entered above:
# CCn1c(=O)cc(SCC(=O)NCc2ccc(Cl)cc2)c2ccccc21 | activity change, negative = cytotoxicity: inactive: -37.6%
# CCc1nn(CC(=O)NCCc2ccc(Cl)cc2)c(=O)c2cc3ccccc3n12 | activity change, negative = cytotoxicity: inactive: -3.01%
# CN(C)CCN1CCN(C(c2ccnc3ccccc23)c2nnnn2-c2ccc3c(c2)OCCO3)CC1 (configuration not stated) | activity change, negative = cytotoxicity: inactive: -0.391%
# COc1cccc(CNCc2cccn2-c2nnc(N3CCN(c4ccccc4)CC3)s2)c1 | Potency: inconclusive: 20.6 µM [cytotoxic, single point]
